From article PMC5762515
Results are given in words; binding and its absence hold for the method and conditions named. Binding seen in cells or lysates may run through a third protein. Some results given as binding are weak or reduced against the parent protein; the word gives no strength.

Chains of the proteins cited; added tags and fusions are not shown.
UniProt Q14457: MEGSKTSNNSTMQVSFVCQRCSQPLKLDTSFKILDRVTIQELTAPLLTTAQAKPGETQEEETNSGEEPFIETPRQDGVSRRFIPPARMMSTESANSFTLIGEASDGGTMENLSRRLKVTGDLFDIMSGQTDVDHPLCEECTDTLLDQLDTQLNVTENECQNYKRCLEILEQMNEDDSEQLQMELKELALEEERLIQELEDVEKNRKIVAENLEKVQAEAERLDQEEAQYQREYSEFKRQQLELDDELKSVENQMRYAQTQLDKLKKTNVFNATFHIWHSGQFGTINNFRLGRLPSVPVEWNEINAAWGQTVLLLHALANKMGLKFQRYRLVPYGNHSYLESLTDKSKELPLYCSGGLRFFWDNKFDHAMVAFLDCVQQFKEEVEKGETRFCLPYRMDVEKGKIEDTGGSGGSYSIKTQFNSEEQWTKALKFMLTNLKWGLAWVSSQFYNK
UniProt P10415: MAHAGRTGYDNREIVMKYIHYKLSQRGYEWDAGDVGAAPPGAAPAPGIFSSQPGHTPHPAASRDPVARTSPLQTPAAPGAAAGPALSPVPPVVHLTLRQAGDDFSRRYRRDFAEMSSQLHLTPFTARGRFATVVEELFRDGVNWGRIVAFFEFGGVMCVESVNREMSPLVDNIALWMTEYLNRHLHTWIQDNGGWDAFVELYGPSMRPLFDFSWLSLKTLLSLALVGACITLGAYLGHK

Molecular target: Beclin1 (human (endogenous in MV3 and A375)) (UniProt Q14457)
Experiment: co-IP; precleared cell lysates incubated with anti-Beclin1 antibodies or normal IgG overnight at 4°C, protein A+G agarose 6 h at 4°C, western blotting; cells treated with 100 μM leflunomide or DMSO for 72 h, or with DHODH knockdown (MV3)

Substance | binding
BCL-2 (from UniProt P10415 1-239) | binds
BCL-2 (overexpressed in A375 cells) (from UniProt P10415 1-239) | binds
